Results deposited as PubChem BioAssay AID1259308 (NCATS, 2017).
In all, the deposit lists about 59,000 reagents; below is a random part of them. Over the whole deposit, about 1,510 (2.6%) were called active. 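Calls use total luciferase alone and ignore viability, so some active siRNAs may act by altering cell number.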 A number with no mark means an inactive call. Reagents against one gene are numbered here.

Aim: 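Candidate targets for better recombinant protein yield in mammalian cells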 (primary screen)
Cells: human HEK293 embryonic kidney cells stably expressing firefly luciferase (HEK-CMV-Luc2-Hygro)
Reagents: single siRNA against human genes, 0.8 pmol siRNA per well
Timing: 72 h
Read-out: 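Luciferase light (ONE-Glo) measured on one replicate plate set and viability (CellTiter-Glo) on the other, scaled to a negative control siRNA, with robust z-scores and luciferase per cell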
Direction: total luciferase, z-score and total luciferase, % of control: higher = more reporter protein produced; luciferase per cell, z-score: higher = more reporter output per viable cell; viable cells, % of control: higher = more viable cells
Hit rule: 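Active when the median/MAD z-score for overall luciferase is greater than 3; a gene was taken forward for validation with new siRNAs if at least two of its three siRNAs passed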
Calls: active = raised luciferase; inactive = no rise

gene symbol,reagent no.,"total luciferase, z-score","total luciferase, % of control","luciferase per cell, z-score","viable cells, % of control"
ALDH18A1 (aldehyde dehydrogenase 18 family member A1),1,0.00164,81.9,0.0954,89.3
ALDH18A1 (aldehyde dehydrogenase 18 family member A1),2,-0.663,68.7,-0.302,83.1
ALDH18A1 (aldehyde dehydrogenase 18 family member A1),3,0.481,91.5,0.401,92
MYLK3 (myosin light chain kinase 3),1,-1.11,59.9,-0.345,73.3
MYLK3 (myosin light chain kinase 3),2,-1.71,47.9,-1.64,82.4
MYLK3 (myosin light chain kinase 3),3,-0.521,71.5,-0.808,98.9
ESCO1,1,-1.89,44.4,-0.286,53.5
ESCO1,2,1.17,105,0.358,107
ESCO1,3,-0.758,66.8,-0.517,85.5
CRYM (crystallin mu),1,-1.57,50.7,-1.11,75.9
CRYM (crystallin mu),2,-0.00852,81.7,-0.15,95
CRYM (crystallin mu),3,-2.15,39.2,-2.08,75.7
RBM10 (RNA binding motif protein 10),1,-1.8,46.1,-1.68,80.2
RBM10 (RNA binding motif protein 10),2,1.24,107,0.948,92.7
RBM10 (RNA binding motif protein 10),3,-0.458,72.8,-0.971,105
UNC13A (unc-13 homolog A),1,0.324,88.3,0.4,88.8
UNC13A (unc-13 homolog A),2,0.157,85,0.386,85.8
UNC13A (unc-13 homolog A),3,0.861,99,0.778,90.1
C8orf82 (chromosome 8 open reading frame 82),1,-0.472,72.5,1.06,61.3
C8orf82 (chromosome 8 open reading frame 82),2,0.359,89,0.267,92.7
C8orf82 (chromosome 8 open reading frame 82),3,-0.0821,80.3,-0.302,97.1
KMT2D (lysine methyltransferase 2D),1,0.604,93.9,0.384,94.8
KMT2D (lysine methyltransferase 2D),2,-1.29,56.2,0.00894,62.6
KMT2D (lysine methyltransferase 2D),3,-0.051,80.9,0.744,74.3
PAX3 (paired box 3),1,-0.242,77.1,-0.114,88.8
PAX3 (paired box 3),2,1.37,109,0.649,103
PAX3 (paired box 3),3,-1.05,61.1,-0.985,88.5
RNF39 (ring finger protein 39),1,0.234,86.5,-0.25,103
RNF39 (ring finger protein 39),2,3.51 (active),152,2.28,92.9
RNF39 (ring finger protein 39),3,1.34,108,1.25,87.2
COMTD1 (catechol-O-methyltransferase domain containing 1),1,-1.43,53.5,-1.52,89.2
COMTD1 (catechol-O-methyltransferase domain containing 1),2,0.147,84.8,-0.418,106
COMTD1 (catechol-O-methyltransferase domain containing 1),3,-0.186,78.2,-0.516,100
CCDC183 (coiled-coil domain containing 183),1,-1.01,61.9,-0.335,75.5
CCDC183 (coiled-coil domain containing 183),2,0.839,98.6,2.11,63.1
CCDC183 (coiled-coil domain containing 183),3,0.86,99,0.69,92.3
FOXN4 (forkhead box N4),1,-0.584,70.3,0.297,72.6
FOXN4 (forkhead box N4),2,-0.157,78.8,-0.892,111
FOXN4 (forkhead box N4),3,-0.649,69,-0.708,92.9
LHX4 (LIM homeobox 4),1,1.26,107,0.236,112
LHX4 (LIM homeobox 4),2,-0.183,78.3,-0.494,99.6
LHX4 (LIM homeobox 4),3,-0.0414,81.1,-0.0746,92.4
SEMA6A (semaphorin 6A),1,-1.6,50,-1.99,94.4
SEMA6A (semaphorin 6A),2,0.536,92.5,1.36,72.3
SEMA6A (semaphorin 6A),3,-1.42,53.7,-1.37,86.2
YAF2 (YY1 associated factor 2),1,-0.924,63.5,-0.625,83.7
YAF2 (YY1 associated factor 2),2,-0.309,75.7,-0.57,98.3
YAF2 (YY1 associated factor 2),3,3.59 (active),153,3.65,65.6
SGK3 (serum/glucocorticoid regulated kinase family member 3),1,-0.782,66.3,-0.592,86.6
SGK3 (serum/glucocorticoid regulated kinase family member 3),2,-0.233,77.3,-0.46,97.4
SGK3 (serum/glucocorticoid regulated kinase family member 3),3,1.6,114,1.19,93
COL25A1 (collagen type XXV alpha 1 chain),1,0.636,94.5,0.0714,104
COL25A1 (collagen type XXV alpha 1 chain),2,0.241,86.7,0.101,94.3
COL25A1 (collagen type XXV alpha 1 chain),3,0.0758,83.4,-0.353,102
HNRNPR (heterogeneous nuclear ribonucleoprotein R),1,0.905,99.9,2.07,64.8
HNRNPR (heterogeneous nuclear ribonucleoprotein R),2,-0.508,71.8,-0.537,92.4
HNRNPR (heterogeneous nuclear ribonucleoprotein R),3,-0.34,75.1,-0.789,103

Called active (from the list above):
gene symbol,reagent no.,"total luciferase, z-score","total luciferase, % of control","luciferase per cell, z-score","viable cells, % of control"
RNF39 (ring finger protein 39),2,3.51 (active),152,2.28,92.9
YAF2 (YY1 associated factor 2),3,3.59 (active),153,3.65,65.6
